The text below walks through data of the supplement of paper PMC6411743.

Sequences of proteins named here, by UniProt entry; tags and fusion partners are left off. A change or cut given only in a name is not applied to a line headed by its entry.
UniProt O43169: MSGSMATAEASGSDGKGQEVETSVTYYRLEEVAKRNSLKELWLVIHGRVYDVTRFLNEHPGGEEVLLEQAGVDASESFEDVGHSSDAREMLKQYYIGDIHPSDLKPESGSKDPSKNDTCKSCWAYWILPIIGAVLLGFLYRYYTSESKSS
UniProt P78537: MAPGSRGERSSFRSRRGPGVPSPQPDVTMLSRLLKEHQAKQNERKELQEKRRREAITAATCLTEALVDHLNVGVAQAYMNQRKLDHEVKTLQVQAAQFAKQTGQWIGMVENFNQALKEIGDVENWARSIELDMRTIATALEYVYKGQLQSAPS
UniProt Q96F10: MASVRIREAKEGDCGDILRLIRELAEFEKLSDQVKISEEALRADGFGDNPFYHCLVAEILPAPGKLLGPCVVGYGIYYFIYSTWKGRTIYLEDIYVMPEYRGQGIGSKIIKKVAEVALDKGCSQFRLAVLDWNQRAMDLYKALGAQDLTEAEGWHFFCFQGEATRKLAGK
UniProt Q99081: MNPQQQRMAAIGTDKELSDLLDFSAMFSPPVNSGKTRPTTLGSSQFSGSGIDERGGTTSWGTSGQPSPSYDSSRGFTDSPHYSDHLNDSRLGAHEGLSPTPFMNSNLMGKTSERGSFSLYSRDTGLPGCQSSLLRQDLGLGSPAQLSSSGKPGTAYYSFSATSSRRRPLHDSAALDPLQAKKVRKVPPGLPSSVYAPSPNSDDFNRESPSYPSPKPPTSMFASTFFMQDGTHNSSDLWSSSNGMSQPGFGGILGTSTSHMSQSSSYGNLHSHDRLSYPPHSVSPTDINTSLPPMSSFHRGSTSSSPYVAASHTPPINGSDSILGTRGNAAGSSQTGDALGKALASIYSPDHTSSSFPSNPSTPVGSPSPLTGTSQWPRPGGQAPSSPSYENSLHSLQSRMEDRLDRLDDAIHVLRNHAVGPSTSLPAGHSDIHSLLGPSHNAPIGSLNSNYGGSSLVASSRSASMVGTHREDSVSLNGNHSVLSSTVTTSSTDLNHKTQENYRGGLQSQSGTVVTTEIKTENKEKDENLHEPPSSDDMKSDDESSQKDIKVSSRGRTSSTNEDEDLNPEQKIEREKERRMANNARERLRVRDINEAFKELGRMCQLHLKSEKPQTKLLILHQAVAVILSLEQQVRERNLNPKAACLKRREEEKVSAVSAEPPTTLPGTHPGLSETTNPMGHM
UniProt Q9NUU7: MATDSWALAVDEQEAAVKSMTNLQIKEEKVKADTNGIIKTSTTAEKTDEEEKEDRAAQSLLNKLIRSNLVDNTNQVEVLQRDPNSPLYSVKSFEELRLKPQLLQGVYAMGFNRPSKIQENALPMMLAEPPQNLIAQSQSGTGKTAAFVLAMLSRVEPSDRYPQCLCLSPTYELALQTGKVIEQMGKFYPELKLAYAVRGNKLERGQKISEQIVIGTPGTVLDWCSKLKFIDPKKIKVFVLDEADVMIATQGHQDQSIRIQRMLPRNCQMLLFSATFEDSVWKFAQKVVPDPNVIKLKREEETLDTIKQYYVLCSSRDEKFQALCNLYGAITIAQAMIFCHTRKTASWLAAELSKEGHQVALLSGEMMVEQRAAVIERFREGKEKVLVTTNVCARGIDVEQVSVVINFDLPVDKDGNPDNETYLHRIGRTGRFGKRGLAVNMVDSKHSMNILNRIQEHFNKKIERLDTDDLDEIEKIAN
UniProt Q03252: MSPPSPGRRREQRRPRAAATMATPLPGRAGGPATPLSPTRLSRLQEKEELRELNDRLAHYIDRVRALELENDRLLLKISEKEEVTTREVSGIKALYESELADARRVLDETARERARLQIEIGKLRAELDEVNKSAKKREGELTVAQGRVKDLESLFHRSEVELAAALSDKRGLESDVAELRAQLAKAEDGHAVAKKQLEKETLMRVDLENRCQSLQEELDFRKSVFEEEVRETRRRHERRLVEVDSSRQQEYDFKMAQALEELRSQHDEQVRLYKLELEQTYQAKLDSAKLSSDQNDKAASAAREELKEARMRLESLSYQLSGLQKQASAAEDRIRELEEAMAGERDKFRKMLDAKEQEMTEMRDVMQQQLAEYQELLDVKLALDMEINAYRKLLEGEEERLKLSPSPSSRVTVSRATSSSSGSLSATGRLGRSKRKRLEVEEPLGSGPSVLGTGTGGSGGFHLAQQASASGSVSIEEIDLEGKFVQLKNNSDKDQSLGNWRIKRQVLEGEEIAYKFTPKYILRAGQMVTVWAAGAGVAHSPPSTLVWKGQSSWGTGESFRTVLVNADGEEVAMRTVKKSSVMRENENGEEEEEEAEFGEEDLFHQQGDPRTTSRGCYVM
UniProt Q9NXW2: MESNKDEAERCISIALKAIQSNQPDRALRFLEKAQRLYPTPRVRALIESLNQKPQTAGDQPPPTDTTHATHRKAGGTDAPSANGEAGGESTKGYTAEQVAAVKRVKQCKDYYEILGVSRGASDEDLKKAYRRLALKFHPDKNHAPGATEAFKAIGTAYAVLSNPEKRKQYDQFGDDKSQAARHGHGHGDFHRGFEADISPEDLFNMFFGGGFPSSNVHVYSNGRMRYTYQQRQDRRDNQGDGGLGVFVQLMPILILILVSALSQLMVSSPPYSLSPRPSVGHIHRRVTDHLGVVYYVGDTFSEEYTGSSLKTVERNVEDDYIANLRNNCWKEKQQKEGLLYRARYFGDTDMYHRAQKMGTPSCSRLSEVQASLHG
UniProt Q9NWH9: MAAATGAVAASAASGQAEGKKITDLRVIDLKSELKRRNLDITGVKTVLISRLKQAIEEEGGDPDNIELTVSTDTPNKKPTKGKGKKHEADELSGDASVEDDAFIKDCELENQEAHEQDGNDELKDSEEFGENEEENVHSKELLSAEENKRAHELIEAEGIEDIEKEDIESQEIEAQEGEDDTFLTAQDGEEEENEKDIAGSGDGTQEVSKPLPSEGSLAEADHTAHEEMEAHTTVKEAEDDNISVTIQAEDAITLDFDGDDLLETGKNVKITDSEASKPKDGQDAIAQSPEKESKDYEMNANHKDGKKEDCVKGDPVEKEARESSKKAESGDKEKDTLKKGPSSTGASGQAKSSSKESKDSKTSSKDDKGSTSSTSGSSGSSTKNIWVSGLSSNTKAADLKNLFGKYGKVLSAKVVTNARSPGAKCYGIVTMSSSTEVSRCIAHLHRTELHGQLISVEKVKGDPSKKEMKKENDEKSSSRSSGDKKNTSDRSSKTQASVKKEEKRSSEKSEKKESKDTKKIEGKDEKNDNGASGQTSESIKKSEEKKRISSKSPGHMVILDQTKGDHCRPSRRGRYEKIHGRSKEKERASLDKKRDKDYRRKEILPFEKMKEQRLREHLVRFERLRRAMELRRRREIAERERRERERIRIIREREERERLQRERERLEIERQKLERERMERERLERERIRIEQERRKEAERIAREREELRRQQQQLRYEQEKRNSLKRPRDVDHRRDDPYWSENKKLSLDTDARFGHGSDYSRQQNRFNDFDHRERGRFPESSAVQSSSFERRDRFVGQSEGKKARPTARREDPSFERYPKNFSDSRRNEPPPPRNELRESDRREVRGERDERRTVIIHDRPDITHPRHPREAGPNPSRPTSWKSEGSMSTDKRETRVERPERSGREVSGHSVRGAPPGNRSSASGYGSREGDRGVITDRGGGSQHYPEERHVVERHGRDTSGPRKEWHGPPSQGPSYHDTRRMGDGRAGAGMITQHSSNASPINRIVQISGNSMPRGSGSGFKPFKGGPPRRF
UniProt Q9BV68: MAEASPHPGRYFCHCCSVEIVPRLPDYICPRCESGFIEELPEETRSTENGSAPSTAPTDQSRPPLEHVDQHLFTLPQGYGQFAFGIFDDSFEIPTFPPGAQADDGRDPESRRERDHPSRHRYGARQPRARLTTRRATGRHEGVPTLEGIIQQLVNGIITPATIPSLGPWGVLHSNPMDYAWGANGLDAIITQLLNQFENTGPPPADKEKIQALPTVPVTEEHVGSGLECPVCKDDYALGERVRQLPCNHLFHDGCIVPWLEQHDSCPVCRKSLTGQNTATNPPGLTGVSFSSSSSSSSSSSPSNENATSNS
UniProt Q96FV2: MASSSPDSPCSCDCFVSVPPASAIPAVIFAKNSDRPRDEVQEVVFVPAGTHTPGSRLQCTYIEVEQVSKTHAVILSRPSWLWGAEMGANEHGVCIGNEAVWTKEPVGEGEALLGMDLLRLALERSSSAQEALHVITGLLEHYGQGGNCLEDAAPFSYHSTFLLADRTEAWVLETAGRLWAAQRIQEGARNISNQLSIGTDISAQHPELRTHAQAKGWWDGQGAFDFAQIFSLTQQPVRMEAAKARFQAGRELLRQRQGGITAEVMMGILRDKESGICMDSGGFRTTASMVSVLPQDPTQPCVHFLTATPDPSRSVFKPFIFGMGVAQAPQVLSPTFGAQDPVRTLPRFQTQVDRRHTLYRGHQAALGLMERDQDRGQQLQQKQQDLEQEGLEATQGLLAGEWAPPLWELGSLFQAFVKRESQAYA
UniProt Q96BT3, whole entry: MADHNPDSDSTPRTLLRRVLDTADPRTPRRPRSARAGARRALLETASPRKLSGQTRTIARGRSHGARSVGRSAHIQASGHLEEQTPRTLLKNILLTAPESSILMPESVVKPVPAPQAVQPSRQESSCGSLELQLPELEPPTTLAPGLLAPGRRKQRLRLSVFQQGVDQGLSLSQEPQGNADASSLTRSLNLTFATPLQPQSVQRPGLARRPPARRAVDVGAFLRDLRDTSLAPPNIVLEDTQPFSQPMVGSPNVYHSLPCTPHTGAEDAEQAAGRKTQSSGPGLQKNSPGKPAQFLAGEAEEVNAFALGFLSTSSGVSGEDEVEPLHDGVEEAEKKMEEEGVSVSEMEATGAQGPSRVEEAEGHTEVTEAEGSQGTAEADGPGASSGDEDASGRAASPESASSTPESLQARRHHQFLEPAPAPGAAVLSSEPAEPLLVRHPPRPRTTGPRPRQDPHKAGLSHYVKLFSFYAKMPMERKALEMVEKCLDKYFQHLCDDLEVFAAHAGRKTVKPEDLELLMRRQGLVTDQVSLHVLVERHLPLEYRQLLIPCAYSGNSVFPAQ
UniProt Q49A26: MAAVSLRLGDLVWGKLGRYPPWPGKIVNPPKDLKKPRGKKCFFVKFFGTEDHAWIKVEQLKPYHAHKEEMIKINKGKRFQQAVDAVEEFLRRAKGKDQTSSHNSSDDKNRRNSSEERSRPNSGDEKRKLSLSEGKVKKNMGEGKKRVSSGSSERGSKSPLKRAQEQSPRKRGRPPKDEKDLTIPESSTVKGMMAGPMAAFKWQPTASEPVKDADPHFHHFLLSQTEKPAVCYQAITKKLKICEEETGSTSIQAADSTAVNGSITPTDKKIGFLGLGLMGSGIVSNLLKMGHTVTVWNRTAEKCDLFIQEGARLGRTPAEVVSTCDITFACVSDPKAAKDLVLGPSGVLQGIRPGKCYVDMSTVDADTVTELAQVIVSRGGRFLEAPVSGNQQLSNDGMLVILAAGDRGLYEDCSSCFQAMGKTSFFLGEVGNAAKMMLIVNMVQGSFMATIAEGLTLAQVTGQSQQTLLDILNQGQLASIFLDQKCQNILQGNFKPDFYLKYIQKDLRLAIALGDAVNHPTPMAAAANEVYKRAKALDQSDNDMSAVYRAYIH
UniProt P78549: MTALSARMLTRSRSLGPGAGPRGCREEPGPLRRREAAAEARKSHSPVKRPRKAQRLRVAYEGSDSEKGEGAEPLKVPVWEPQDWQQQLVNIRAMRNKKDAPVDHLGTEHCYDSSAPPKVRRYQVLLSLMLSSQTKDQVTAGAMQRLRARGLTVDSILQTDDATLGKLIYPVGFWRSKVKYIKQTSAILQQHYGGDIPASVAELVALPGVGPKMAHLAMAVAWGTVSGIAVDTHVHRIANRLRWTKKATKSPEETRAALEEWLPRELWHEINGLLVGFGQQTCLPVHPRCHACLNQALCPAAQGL
UniProt Q969X6: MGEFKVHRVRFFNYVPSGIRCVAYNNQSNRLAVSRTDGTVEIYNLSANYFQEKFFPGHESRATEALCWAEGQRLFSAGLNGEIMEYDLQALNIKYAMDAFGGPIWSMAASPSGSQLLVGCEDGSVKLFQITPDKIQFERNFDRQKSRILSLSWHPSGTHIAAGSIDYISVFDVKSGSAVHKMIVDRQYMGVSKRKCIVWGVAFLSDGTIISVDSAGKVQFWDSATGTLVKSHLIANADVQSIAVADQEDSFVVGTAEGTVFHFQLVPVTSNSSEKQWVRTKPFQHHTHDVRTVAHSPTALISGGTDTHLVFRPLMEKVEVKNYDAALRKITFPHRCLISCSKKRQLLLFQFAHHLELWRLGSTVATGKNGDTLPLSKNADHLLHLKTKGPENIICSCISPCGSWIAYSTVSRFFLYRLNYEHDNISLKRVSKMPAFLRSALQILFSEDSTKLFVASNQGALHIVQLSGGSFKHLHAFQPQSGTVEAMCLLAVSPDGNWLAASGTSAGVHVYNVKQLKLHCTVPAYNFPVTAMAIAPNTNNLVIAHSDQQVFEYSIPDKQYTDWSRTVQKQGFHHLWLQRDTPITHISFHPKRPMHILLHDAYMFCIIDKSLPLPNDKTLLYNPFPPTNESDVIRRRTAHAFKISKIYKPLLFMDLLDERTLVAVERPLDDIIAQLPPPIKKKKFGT

± gives the standard deviation of the averaged measurements. The list shows a part of the results, in another mix than the full data. Most entries show no effect beyond the scatter of the controls.

Compound in this experiment: Nc1ncnc2c1ncn2[C@@H]1O[C@H](COP(=O)(O)OP(=O)(O)OP(=O)(O)O)[C@@H](O)[C@H]1O [adenosine triphosphate]
Kind of experiment: NP40-soluble protein abundance relative to vehicle (solubility fold change) (ratio); higher = more soluble protein in presence of ATP. The note with it: concentration: 0.1mM. In outline:
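Each value is a fold change relative to the detergent-processed vehicle, calculated per replicate from vsn-normalised intensities. Jurkat crude lysate received eight concentrations (0.1 to 10 mM) for 10 min at room temperature and 3 min at 37 °C, then was solubilised in 0.8% NP40 with benzonase (60 min, 4 °C). The ultracentrifuged supernatant was TMT-labelled and run by LC-MS/MS in three independent experiments.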
Consider “I3L1H5 and related entries (UniProt Q9BZG8)”, for which the NP40-soluble protein abundance turned out to be 0.949 ± 0.13.

As to “H3BUX2 and related entries (UniProt O43169)”, the NP40-soluble protein abundance was determined as 0.848 ± 0.094.

For “I3L2M1 and related entries (UniProt Q8WYJ6)”, the NP40-soluble protein abundance came to 1 ± 0.035.

“H0Y6E7 and related entries (UniProt P38159)”: the NP40-soluble protein abundance was determined as 1 ± 0.022.

On to “H7C3Q6 and related entries (UniProt Q8WV92)”, for which the NP40-soluble protein abundance was 1.25 ± 0.057.

As to “G8JLQ3 and related entries (UniProt P78537)”, the NP40-soluble protein abundance turned out to be 0.863 ± 0.2.

Take “J3KQ34 and related entries (UniProt Q9H9Q2)”: the NP40-soluble protein abundance turned out to be 0.884 ± 0.13.

As for “J3KTE4 and related entries (UniProt P84098)”, the NP40-soluble protein abundance was found to be 0.948 ± 0.049.

As to “I3L0W4 and related entries (UniProt Q96F10)”, the NP40-soluble protein abundance amounted to 1 ± 0.068.

On to “H0YNP8 and related entries (UniProt Q99081)”, for which the NP40-soluble protein abundance is 0.983 ± 0.022.

As for “K7ES61 and related entries (UniProt Q9BYD3)”, the NP40-soluble protein abundance was 0.962 ± 0.084.

Turning to “G5E9W3 and related entries (UniProt Q9UKF6)”, the NP40-soluble protein abundance came out at 1.02 ± 0.058.

For “J3KNW7 and related entries (UniProt Q9Y592)”, the NP40-soluble protein abundance is 1.03 ± 0.1.

Regarding “I3L0H8 and related entries (UniProt Q9NUU7)”, the NP40-soluble protein abundance was determined as 1.03 ± 0.041.

As to “J3KPP4 and related entries (UniProt O95232)”, the NP40-soluble protein abundance is 1.22 ± 0.065.

Regarding “J3KP06 and related entries (UniProt Q8WWI1)”, the NP40-soluble protein abundance came out at 0.96 ± 0.033.

On to “H7C0H2 and related entries (UniProt Q96EV2)”, for which the NP40-soluble protein abundance was determined as 1 ± 0.028.

Turning to “J9JID7 and related entries (UniProt Q03252)”, the NP40-soluble protein abundance was found to be 0.989 ± 0.029.

In the case of “I3L0L6 and related entries (UniProt Q9H6Y7)”, the NP40-soluble protein abundance stood at 0.905 ± 0.026.

“J3KPS0 and related entries (UniProt Q9NXW2)”: the NP40-soluble protein abundance is 0.997 ± 0.075.

Regarding J3KPF0 (UniProt Q9Y4D8), the NP40-soluble protein abundance worked out at 1.03 ± 0.045.

“I3L448 and related entries (UniProt Q5TC12)”: the NP40-soluble protein abundance came out at 1.01 ± 0.05.

On to “H0YLE6 and related entries (UniProt Q9NWH9)”, for which the NP40-soluble protein abundance was determined as 1.01 ± 0.026.

Turning to “G5E9V5 and related entries (UniProt P82650)”, the NP40-soluble protein abundance was 0.952 ± 0.071.

Turning to “J3KTL2 and related entries (UniProt Q07955)”, the NP40-soluble protein abundance is 0.997 ± 0.077.

As for “K7EIY6 and related entries (UniProt Q9BV68)”, the NP40-soluble protein abundance worked out at 0.927 ± 0.13.

Turning to “K7ELH7 and related entries (UniProt Q8IVV7)”, the NP40-soluble protein abundance is 1.045 ± 0.0085.

For the target “J3QL71 and related entries (UniProt Q96FV2)”, the NP40-soluble protein abundance was determined as 1.02 ± 0.032.

In the case of “H3BTR4 and related entries (UniProt Q96BT3)”, the NP40-soluble protein abundance worked out at 1.1 ± 0.16.

On to “H7C5F5 and related entries (UniProt Q9H2U1)”, for which the NP40-soluble protein abundance was 0.995 ± 0.081.

For “K7EK70 and related entries (UniProt Q49A26)”, the NP40-soluble protein abundance was determined as 1.06 ± 0.068.

For the target “K7ENL9 and related entries (UniProt Q96DM3)”, the NP40-soluble protein abundance worked out at 1.06 ± 0.053.

In the case of “J3QTA6 and related entries (UniProt Q9BRQ6)”, the NP40-soluble protein abundance is 0.98 ± 0.11.

In the case of “H7C5U8 and related entries (UniProt Q9P0M9)”, the NP40-soluble protein abundance is 0.936 ± 0.26.

Take “H0YM92 and related entries (UniProt P01130)”: the NP40-soluble protein abundance was 0.985 ± 0.017.

In the case of “H3BPD5 and related entries (UniProt P78549)”, the NP40-soluble protein abundance was determined as 0.979 ± 0.11.

On to “J3KTD6 and related entries (UniProt Q96GD4)”, for which the NP40-soluble protein abundance is 1.08 ± 0.077.

“H3BSH7 and related entries (UniProt Q969X6)”: the NP40-soluble protein abundance was 1.16 ± 0.12.
